Reference: patent US4581354A, “3-arylcarbonyl- and 3-cycloalkylcarbonyl-1-aminoalkyl-1H-indoles, compositions and use” (Sterling Drug Inc., priority 1985, dated 1986)
Read-outs that look alike come from different tables or passages of the source. At least one read-out could not be matched to a standard name with certainty.

Tested on: acetylcholine-induced abdominal constriction
Format: in vivo, mice
Description: The test procedures used to determine the analgesic activities of the compounds have been described in detail in the prior art and are as follows: The acetylcholine-induced abdominal constriction test, which is a primary analgesic screening test designed to measure the ability of a test agent to suppress acetylcholine-induced abdominal constriction in mice, described by Collier et al., Brit. J. Pharmacol. Chemotherap. 32, 295 (1968); a modification of the anti-bradykinin test, which is also a primary analgesic screening procedure, described by Berkowitz et al., J. Pharmacol. Exptl. Therap. 177, 500-508 (1971), Blane et al., J. Pharm. Pharmacol. 19, 367-373 (1967), Botha et al., Eur. J. Pharmacol. 6, 312-321 (1969) and Deffenu et al., J. Pharm. Pharmacol. 18, 135 (1966); and the rat paw flexion test, described by Kuzuna et al., Chem. Pharm. Bull., 23, 1184-1191 (1975), Winter et al., J. Pharm. Exptl. Therap., 211, 678-685 (1979) and Capetola et al., J. Pharm. Exptl. Therap. 214, 16-23 (1980).
Unless noted otherwise, all data were obtained on oral administration and are expressed either as the ED50 or as the percent inhibition at a given dose level (thus 30/100 or 30% inhibition at […].)
In some instances, the compounds were retested two or more times, and ED50 values were calculated for each series of repeat tests. […]

Question: For `COc1ccc(C(=O)c2c(C)n(CC(O)CN3CCCC3)c3ccccc23)cc1` (centres unmarked) [Example 31H], which Ach percent inhibition (dose 100, i.c.v.) is on record?
Answer: 30%

Question: With `CCNCC(O)Cn1c(C)c(C(=O)c2ccc(OC)cc2)c2ccccc21` (centres unmarked) [Example 31N] as the compound, how does the Ach percent inhibition (100 mg./kg. oral) read?
Answer: 100%
